These are yes or no findings as the source states them, for the method shown. Binding seen in cells or lysates may run through a third protein. Some results given as binding are weak or reduced against the parent protein; the word gives no strength.
Biological target: RhoC, full length, wild type, as the C-terminal module of the RhoC FLARE.sc biosensor (UniProt P08134)
Assay: FRET or BRET; intramolecular FRET of the single-chain biosensor (binding domain-mCerulean-linker-mVenus-RhoC); fluorometry of cold, live HEK293T cell suspensions in PBS 48 h after transfection, excitation 433 nm, emission 450-600 nm, FRET/CFP ratio

Protein sequences, listed by entry. Tags and fused reporters are not part of them.
UniProt P08134: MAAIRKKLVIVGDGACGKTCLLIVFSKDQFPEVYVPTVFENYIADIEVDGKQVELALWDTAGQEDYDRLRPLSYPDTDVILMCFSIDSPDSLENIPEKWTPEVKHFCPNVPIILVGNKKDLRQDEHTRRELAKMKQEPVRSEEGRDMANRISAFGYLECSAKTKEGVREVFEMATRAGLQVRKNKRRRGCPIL

binding: binds
B1: ROCK1 Rho binding domain (RBD, amino acids 905-1046), as the N-terminal module of the RhoC FLARE.sc biosensor (domain or fragment, UniProt Q13464 905-1046, looked up)
chain: ARGLLEEQYFELTQESKKAASRNRQEITDKDHTVSRLEEANSMLTKDIEILRRENEELTEKMKKAEEEYKLEKEEEISNLKAAFEKNINTERTLKTQAVNKLAEIMNRKDFKIDRKKANTQDLRKKEKENRKLQLELNQERE
notes: It is split from RhoC here so that the intramolecular pair can be written; Subcloned into pTriEX-HisMyc4 (Novagen), which may add His and Myc tags; source: HEK293T, transfected (Lipofectamine2000), in live cell suspension; not shown: monomeric Cerulean, C-terminal, kept

Reference: paper PMC3818223, “A RhoC Biosensor Reveals Differences in the Activation Kinetics of RhoA and RhoC in Migrating Cells” (PLoS ONE, 2013)
